{"source": "patent US20080089848A1", "about": "“INTRATHECAL INJECTION OF MICROBUBBLES” (priority 2006, published 2008)", "origin": "cited, not measured here", "test_system": "vasospasm", "conditions": "prolonged release implant", "note": "For at least one compound, name, drawing or mass did not settle the structure.", "data": [{"smiles": "COC(=O)C1=C(C)NC(C)=C(C(=O)OCCN(C)Cc2ccccc2)C1c1cccc([N+](=O)[O-])c1", "note": "(centres unmarked) [nicardipine]", "values": [{"measurement": "vasospasm for the arteries with thick cistern clots", "setting": "Kasuya 2002", "value": "completely prevented vasospasm"}, {"measurement": "incidence of delayed ischemic neurological deficit", "setting": "Kasuya 2005", "value": "may decrease"}]}]}
